From patent US20150141411A1, “SUBSTITUTED 3,4-DIHYDRO-2H-PYRIDO[1,2-A]PYRAZINE-1,6-DIONE DERIVATIVES USEFUL FOR THE TREATMENT OF (INTER ALIA) ALZHEIMER'S DISEASE” (Janssen Pharmaceuticals, Inc., priority 2012, published 2015)
The structures given here were assigned with low confidence; some may be wrong.

Experiments:
[1] = target: T1, γ-secretase (Homo sapiens, UniProt P49768); assay: Screening for γ-secretase-modulating activity: Aβtotal in supernatant of SKNBE2 cells carrying hAPP 695 wild type (Alphalisa); conditions: read-out: IC50 Aβtotal, SKNBE2 human neuroblastoma cells carrying hAPP 695 wild type, overnight incubation, Aβtotal in cell supernatant
Experimental: (§1) Screening was carried out using SKNBE2 human neuroblastoma cells carrying the hAPP 695—wild type, grown in Dulbecco's Modified Eagle's Medium/Nutrient mixture F-12 (DMEM/NUT-mix F-12) (HAM) provided by Invitrogen (cat no. 10371-029) containing 5% Serum/Fe supplemented with 1% non-essential amino acids, 1-glutamine 2 mM, Hepes 15 mM, penicillin 50 U/ml (units/ml) en streptomycin 50 μg/ml. Cells were grown to near confluency.
(§2) The screening was performed using a modification of the assay as described in Citron et al (1997) Nature Medicine 3: 67. […]
(§3) Aβtotal and Aβ42 concentrations were quantified in the cell supernatant using the Aphalisa technology (Perkin Elmer). […] To quantify the amount of Aβ42 in the cell supernatant, monoclonal antibody specific to the C-terminus of Aβ42 (JRF/cAβ42/26) was coupled to the receptor beads and biotinylated antibody specific to the N-terminus of Aβ (JRF/AβN/25) was used to react with the donor beads. To quantify the amount of Aβtotal in the cell supernatant, monoclonal antibody specific to the N-terminus of Aβ (JRF/AβN/25) was coupled to the receptor beads and biotinylated antibody specific to the mid region of Aβ (biotinylated 4G8) was used to react with the donor beads.
(§4) To obtain the values reported in Table 3, the data are calculated as percentage of the maximum amount of amyloid Beta 42 measured in the absence of the test compound. […]

[2] = target: T1, γ-secretase; assay: Screening for γ-secretase-modulating activity: Aβ42 in supernatant of SKNBE2 cells carrying hAPP 695 wild type (Alphalisa); conditions: read-out: IC50 Aβ42, SKNBE2 human neuroblastoma cells carrying hAPP 695 wild type, overnight incubation, Aβ42 in cell supernatant
Experimental: as §1, §2, §3, §4

IC50 [1] | IC50 [2] | SMILES
> 10000 nM | 930 nM | Cc1cn(-c2ccc3n(c2=O)CC(C)N(C2Cc4ccccc4C2)C3=O)cn1 (single isomer, unassigned)
7000 nM | 930 nM | Cc1cn(-c2ccc3n(c2=O)C[C@@H](C)N(C(C)c2c[nH]c4ccc(Cl)cc24)C3=O)cn1 (stereo partly shown)
